Assay results published in article PMC3556083.
These are yes or no findings as the source states them, for the method shown. Binding seen in cells or lysates may run through a third protein. Here binding means that the protein was enriched with, or labelled near, the bait; the list need not be complete.

B1: SELENBP1 (protein, UniProt Q8VIF7 1-472)
chain: MATKCTKCGPGYATPLEAMKGPREEIVYLPCIYRNTGIEAPDYLATVDVDPKSPHYSQVIHRLPMPHLKDELHHSGWNTCSSCFGDSTKSRDKLILPSIISSRIYVVDVGSEPRAPKLHKVIEPNEIHAKCNLGNLHTSHCLASGEVMISSLGDPQGNGKGGFVLLDGETFEVKGTWEKPGGEAPMGYDFWYQPRHNIMVSTEWAAPNVFKDGFNPAHVEAGLYGSHIHVWDWQRHEIIQTLQMKDGLIPLEIRFLHDPDATQGFVGCALSSNIQRFYKNEGGTWSVEKVIQVPSKKVKGWMLPEMPGLITDILLSLDDRFLYFSNWLHGDIRQYDISNPKKPRLTGQIFLGGSIVKGGSVQVLEDQELTCQPEPLVVKGKRVPGGPQMIQLSLDGKRLYVTTSLYSAWDKQFYPNLIREGSVMLQIDVDTANGGLKLNPNFLVDFGKEPLGPALAHELRYPGGDCSSDIWI
B2: EHD4 (protein, UniProt Q8R3Z7 1-549)
chain: MRKDLRSLLNNERAPVTQRLMIGRCGRGRARERAVARASPAPRVLPLEEAYRFHEFHSPALEDADFENKPMILLVGQYSTGKTTFIRYLLEQDFPGMRIGPEPTTDSFIAVMYGETEGSTPGNALVVDPKKPFRKLSRFGNAFLNRFMCSQLPNQVLKSISIIDSPGILSGEKQRISRGYDFCQVLQWFAERVDRIILLFDAHKLDISDEFSEAIKAFRGQDDKIRVVLNKADQVDTQQLMRVYGALMWSLGKVINTPEVLRVYIGSFWAQPLQNTDNRRLFEAEAQDLFRDIQSLPQKAAVRKLNDLIKRARLAKVHAYIISYLKKEMPSMFGKENKKRELIFRLPEIYVQLQREYQISAGDFPEVKAMQEQLENYDFTKFHSLKPKLIEAVDNMLTNKISSLMSLISQEEMNMPTQMVQGGAFDGTTEGPFNQGYGEGAKEGADEEEWVVAKDKPVYDELFYTLSPINGKISGVNAKKEMVTSKLPNSVLGKIWKLADCDCDGMLDEEEFALAKHLIKIKLDGYELPNSLPPHLVPPSHRKSLPKAD
B3: EHD2 (protein, UniProt Q4V8H8 1-543)
chain: MFSWLKKGGARGQRSEAIRTVTSSLKELYRTKLLPLEEHYRFGSFHSPALEDADFDGKPMVLVAGQYSTGKTSFIQYLLEQEVPGSRVGPEPTTDCFVAVMHGETEGTVPGNALVVDPEKPFRKLNPFGNTFLNRFMCAQLPNQVLESISIIDTPGILSGAKQRVSRGYDFPAVLRWFAERVDLIILLFDAHKLEISDEFSEAIGALRGHEDKIRVVLNKADMVETQQLMRVYGALMWALGKVVGTPEVLRVYIGSFWSQPLLVPDNRRLFELEEQDLFRDIQGLPRHAALRKLNDLVKRARLVRVHAYIISYLKKEMPSVFGKENKKKQLIFKLPVIFAKIQLEHHISPGDFPDCQKMQELLMAHDFTKFHSLKPKLLEALDEMLTHDIAKLMPLLRQEELESVEAGVQGGAFEGTRMGPFVERGPDEAIEDGEEGSEDDAEWVVTKDKSKYDEIFYNLAPADGKLSGSKAKTWMVGTKLPNSVLGRIWKLSDVDRDGMLDDEEFALASHLIEAKLEGHGLPTNLPRRLVPPSKRRQKGSAE
B4: DSTN (protein, UniProt Q7M0E3 1-165)
chain: MASGVQVADEVCRIFYDMKVRKCSTPEEIKKRKKAVIFCLSADKKCIVVEEGKEILVGDVGVTITDPFKHFVGMLPEKDCRYALYDASFETKESRKEELMFFLWAPEQAPLKSKMIYASSKDAIKKKFPGIKHEYQANGPEDLNRTSIAEKLGGSLIVAFEGSPV

Target: β2-adrenergic receptor (UniProt P07550)
Experiment: affinity purification with mass spectrometry; purified Flag-β2AR in rHDL immobilised on M1 anti-Flag resin, occupied by 50 µM BI-167107 (full agonist) or 50 µM carazolol (inverse agonist); adult rat heart cytosol (10 mg/ml, 4 mM CaCl2) overnight at 4°C; eluted with FLAG peptide and EDTA; gel slices, LC-MS; proteins of the M1 resin, empty rHDL and Ni-NTA controls subtracted; hits of either or both samples; only the target purified

binding, binds:
B1
B2
B3
B4
